Laboratory results published in article doi:10.1101/2019.12.24.886648.
No constants are given. Whether binding was seen depends on the method and setting. In cells and extracts the contact can be indirect. Some entries that bind do so weakly or less than the wild type. For part of these data: Where a sequence is shown, tags or fusion partners need not be part of it.

Amino acid sequences for entries named in this document (tags omitted).
UniProt A0FGR9: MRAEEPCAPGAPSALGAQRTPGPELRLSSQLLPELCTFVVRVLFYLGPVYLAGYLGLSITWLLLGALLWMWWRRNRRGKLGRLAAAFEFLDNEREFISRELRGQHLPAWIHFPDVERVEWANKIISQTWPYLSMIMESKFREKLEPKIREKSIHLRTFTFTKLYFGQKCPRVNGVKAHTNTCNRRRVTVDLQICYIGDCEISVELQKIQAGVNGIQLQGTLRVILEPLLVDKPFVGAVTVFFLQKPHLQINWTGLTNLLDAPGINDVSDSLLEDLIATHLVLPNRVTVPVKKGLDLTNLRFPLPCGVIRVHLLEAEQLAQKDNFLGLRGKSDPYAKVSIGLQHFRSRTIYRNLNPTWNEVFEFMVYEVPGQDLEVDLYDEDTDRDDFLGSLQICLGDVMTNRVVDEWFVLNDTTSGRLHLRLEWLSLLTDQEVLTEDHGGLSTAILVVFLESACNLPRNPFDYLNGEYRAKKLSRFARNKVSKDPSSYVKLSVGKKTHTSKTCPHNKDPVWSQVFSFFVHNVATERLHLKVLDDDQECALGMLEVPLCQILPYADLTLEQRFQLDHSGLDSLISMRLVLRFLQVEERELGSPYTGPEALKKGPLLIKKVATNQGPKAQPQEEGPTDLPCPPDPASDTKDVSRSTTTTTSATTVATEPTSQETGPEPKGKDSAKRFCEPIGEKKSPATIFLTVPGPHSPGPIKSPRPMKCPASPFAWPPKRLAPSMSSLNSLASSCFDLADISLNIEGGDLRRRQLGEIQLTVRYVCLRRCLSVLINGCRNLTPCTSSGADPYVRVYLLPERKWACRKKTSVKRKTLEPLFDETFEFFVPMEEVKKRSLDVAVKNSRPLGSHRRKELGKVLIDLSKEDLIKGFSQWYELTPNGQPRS

T1: eGFP-Stx3 (human) (UniProt Q13277)
T1 sequence: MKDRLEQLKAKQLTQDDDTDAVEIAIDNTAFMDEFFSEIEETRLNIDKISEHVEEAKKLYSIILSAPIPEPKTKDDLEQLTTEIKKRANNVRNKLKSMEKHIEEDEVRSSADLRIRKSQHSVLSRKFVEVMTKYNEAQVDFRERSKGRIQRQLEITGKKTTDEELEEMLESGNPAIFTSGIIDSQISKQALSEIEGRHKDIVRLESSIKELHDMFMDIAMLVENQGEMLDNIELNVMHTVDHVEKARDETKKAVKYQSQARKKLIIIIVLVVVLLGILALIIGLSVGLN

T2: Sec22b-pHL, O75396
T2 chain: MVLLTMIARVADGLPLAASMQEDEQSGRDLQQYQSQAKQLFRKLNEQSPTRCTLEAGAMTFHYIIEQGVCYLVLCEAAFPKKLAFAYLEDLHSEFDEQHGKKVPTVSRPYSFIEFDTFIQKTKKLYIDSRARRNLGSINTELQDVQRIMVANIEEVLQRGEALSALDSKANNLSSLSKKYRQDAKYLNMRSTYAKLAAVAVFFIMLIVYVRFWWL


What was measured:
eGFP-Stx3 (human) = biological target: T1, eGFP-Stx3 (human); experiment: co-IP
Sec22b-pHL, O75396 = biological target: T2, Sec22b-pHL, O75396; experiment: co-IP; details: remark: other sources report otherwise

Row | Molecule | binding (eGFP-Stx3 (human)) | binding (Sec22b-pHL, O75396)
1 | 3XFLAG-Sec22b (from UniProt O75396 1-215) | binds | –
2 | Myc-E-Syt3 (from UniProt A0FGR9 1-886) | binds | –
3 | endogenous Sec22b (rat), Q4KM74 1-215 (protein) MVLLTMIARVADGLPLAASMQEDEQSGRDLQQYQSQAKQLFRKLNEQSPTRCTLEAGAMTFHYIIEQGVCYLVLCEAAFPKKLAFAYLEDLHSEFDEQHGKKVPTVSRPYSFIEFDTFIQKTKKLYIDSRARRNLGSINTELQDVQRIMVANIEEVLQRGEALSALDSKANNLSSLSKKYRQDAKYLNMRSTYAKLAAVAVFFIMLIVYVRFWWL | – | binds
